# Screening data

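Malaria parasite (P. falciparum) lines kept in red blood cells; parasite DNA is measured by SYBR Green fluorescence after lysis, 72 h after compound addition.
Each compound was titrated across a series from about 0.000037 to 29 µM.
The number is the fitted AC50, the concentration giving a half-maximal change in signal; a lower value means higher potency, whether the curve shows a decrease or an increase.
Calls follow the curve class and fit quality: every row here is inconclusive, covering signal-raising curves and weak, poorly fitted, partial or highest-dose-only inhibition curves.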

Values are in µM.
Every entry below has the call inconclusive.
Only part of the assay is shown, chiefly results filed as inconclusive.
Potencies fitted to partial, single-point or poorly fitting curves are rough.

compound	tested on / at	Potency (µM)	remark
O=C1Oc2ccccc2C(=O)C1C(CC(O)c1ccc(-c2ccc(Br)cc2)cc1)c1ccccc1 (stereo not shown)	DIV14	19.01	inhibitor, single point
O=C1Oc2ccccc2C(=O)C1C(CC(O)c1ccc(-c2ccc(Br)cc2)cc1)c1ccccc1 (stereo not shown)	CP247	17.78	inhibitor, single point
CN1C2CCC1CC(OC(c1ccccc1)c1ccc(Cl)cc1)C2 (stereo not shown)	CP192	13.46	inhibitor, single point
CN1C2CCC1CC(OC(c1ccccc1)c1ccc(Cl)cc1)C2 (stereo not shown)	CP315	16.94	inhibitor, single point
CN1C2CCC1CC(OC(c1ccccc1)c1ccc(Cl)cc1)C2 (stereo not shown)	CP201	8.492	inhibitor, partial curve
CCCCC(=O)O[C@]1(C(=O)CO)[C@H](C)C[C@H]2[C@@H]3CCC4=CC(=O)C=C[C@]4(C)[C@@]3(F)[C@@H](O)C[C@@]21C	PC26	19.01	inhibitor, single point
CCCCC(=O)O[C@]1(C(=O)CO)[C@H](C)C[C@H]2[C@@H]3CCC4=CC(=O)C=C[C@]4(C)[C@@]3(F)[C@@H](O)C[C@@]21C	ECU	11.22	inhibitor, single point
CCCCC(=O)O[C@]1(C(=O)CO)[C@H](C)C[C@H]2[C@@H]3CCC4=CC(=O)C=C[C@]4(C)[C@@]3(F)[C@@H](O)C[C@@]21C	TAB165	17.78	inhibitor, single point
CCCCC(=O)O[C@]1(C(=O)CO)[C@H](C)C[C@H]2[C@@H]3CCC4=CC(=O)C=C[C@]4(C)[C@@]3(F)[C@@H](O)C[C@@]21C	GB4	15.1	inhibitor, single point
CCCCC(=O)O[C@]1(C(=O)CO)[C@H](C)C[C@H]2[C@@H]3CCC4=CC(=O)C=C[C@]4(C)[C@@]3(F)[C@@H](O)C[C@@]21C	AS120	11.22	inhibitor, partial curve
CCCCC(=O)O[C@]1(C(=O)CO)[C@H](C)C[C@H]2[C@@H]3CCC4=CC(=O)C=C[C@]4(C)[C@@]3(F)[C@@H](O)C[C@@]21C	DIV17	15.1	inhibitor, partial curve
CCCCC(=O)O[C@]1(C(=O)CO)[C@H](C)C[C@H]2[C@@H]3CCC4=CC(=O)C=C[C@]4(C)[C@@]3(F)[C@@H](O)C[C@@]21C	DFO2036	10	inhibitor, partial curve, poor fit
CCCCC(=O)O[C@]1(C(=O)CO)[C@H](C)C[C@H]2[C@@H]3CCC4=CC(=O)C=C[C@]4(C)[C@@]3(F)[C@@H](O)C[C@@]21C	CP335	15.1	inhibitor, single point
CCCCC(=O)O[C@]1(C(=O)CO)[C@H](C)C[C@H]2[C@@H]3CCC4=CC(=O)C=C[C@]4(C)[C@@]3(F)[C@@H](O)C[C@@]21C	ICS	0.0794	inhibitor, full curve, poor fit
CCCCC(=O)O[C@]1(C(=O)CO)[C@H](C)C[C@H]2[C@@H]3CCC4=CC(=O)C=C[C@]4(C)[C@@]3(F)[C@@H](O)C[C@@]21C	TAB109	17.78	inhibitor, single point
CCCCC(=O)O[C@]1(C(=O)CO)[C@H](C)C[C@H]2[C@@H]3CCC4=CC(=O)C=C[C@]4(C)[C@@]3(F)[C@@H](O)C[C@@]21C	CP203	19.01	inhibitor, single point
CCCCC(=O)O[C@]1(C(=O)CO)[C@H](C)C[C@H]2[C@@H]3CCC4=CC(=O)C=C[C@]4(C)[C@@]3(F)[C@@H](O)C[C@@]21C	DIV14	12	inhibitor, single point
CCCCC(=O)O[C@]1(C(=O)CO)[C@H](C)C[C@H]2[C@@H]3CCC4=CC(=O)C=C[C@]4(C)[C@@]3(F)[C@@H](O)C[C@@]21C	3D7	10	inhibitor, single point
CCCCC(=O)O[C@]1(C(=O)CO)[C@H](C)C[C@H]2[C@@H]3CCC4=CC(=O)C=C[C@]4(C)[C@@]3(F)[C@@H](O)C[C@@]21C	N140	15.85	inhibitor, single point
CCCCC(=O)O[C@]1(C(=O)CO)[C@H](C)C[C@H]2[C@@H]3CCC4=CC(=O)C=C[C@]4(C)[C@@]3(F)[C@@H](O)C[C@@]21C	PAD	12.59	inhibitor, single point
CCCCC(=O)O[C@]1(C(=O)CO)[C@H](C)C[C@H]2[C@@H]3CCC4=CC(=O)C=C[C@]4(C)[C@@]3(F)[C@@H](O)C[C@@]21C	DIV30	7.569	inhibitor, partial curve
CCCCC(=O)O[C@]1(C(=O)CO)[C@H](C)C[C@H]2[C@@H]3CCC4=CC(=O)C=C[C@]4(C)[C@@]3(F)[C@@H](O)C[C@@]21C	CP260	10	inhibitor, single point
CCCCC(=O)O[C@]1(C(=O)CO)[C@H](C)C[C@H]2[C@@H]3CCC4=CC(=O)C=C[C@]4(C)[C@@]3(F)[C@@H](O)C[C@@]21C	PC15	17.78	inhibitor, single point
CCCCC(=O)O[C@]1(C(=O)CO)[C@H](C)C[C@H]2[C@@H]3CCC4=CC(=O)C=C[C@]4(C)[C@@]3(F)[C@@H](O)C[C@@]21C	P93_24	11.22	inhibitor, single point

Some entries from above, unchanged:

compound	tested on / at	Potency (µM)	remark
CCCCC(=O)O[C@]1(C(=O)CO)[C@H](C)C[C@H]2[C@@H]3CCC4=CC(=O)C=C[C@]4(C)[C@@]3(F)[C@@H](O)C[C@@]21C	ECU	11.22	inhibitor, single point
CN1C2CCC1CC(OC(c1ccccc1)c1ccc(Cl)cc1)C2 (stereo not shown)	CP315	16.94	inhibitor, single point
O=C1Oc2ccccc2C(=O)C1C(CC(O)c1ccc(-c2ccc(Br)cc2)cc1)c1ccccc1 (stereo not shown)	DIV14	19.01	inhibitor, single point

Data taken from PubChem BioAssay AID504749, deposited by NCATS (2011).